This is an account of results in US11446270B2, “Leonurine crystal and use thereof in preparation of insulin sensitizer, hypoglycemic drug and lipid-lowering drug” (ZHUHAI HENGQIN NEW DISTRICT ZHONGZHU ZHENGTAI MEDICAL …, priority 2017, dated 2022).

Molecules are shown by their SMILES.

The assay relates to ApoE knockout mice. Description: Serum lipids in hyperlipidemia ApoE knockout mice on high fat diet. The class given is in vivo. The following applies: positive control 3 mg/kg/day intragastric, 4 weeks, vs model group. As to the method: Fifteen C57BL/6J mice (male, 6-8 weeks) and seventy-five ApoE knockout mice (male, 6-8 weeks) were used for experiments. C57BL/6J mice were fed with normal diet, and ApoE knockout mice were fed for 1 week with a diet of normal/high fat diet ratio of 1/1.
Mice were weighed before administered drugs every week, where the dosage of the drug for mice is calculate according to the weight; and housed under 24±1° C. room temperature and 55±5% air humidity condition, and allowed enough food and water ad libitum. After the drug administration continuously for 4 weeks, the mice were anesthetized with pentobarbital sodium according to body weight. Blood (0.5 ml per mouse) was drawn from the inner canthus vein for hematology analysis. Hematology analysis: blood samples were let for standing for 2 h and centrifuged (3000 rpm, 10 min, 4° C.) to obtain serum. The total cholesterol (TC), triacylglycerol (TG) and low-density cholesterol (LDL-C) levels in the serum samples were assessed using automatic biochemical analyzer. Statistical analysis: GraphPad Prism 5 software was used to analyze and draw figure. Results were expressed as the mean±standard (mean±SD), and statistical analysis was performed by one-way analysis of variance (ANOVA) or student's t test. A difference with P<0.05 was considered statistically significant. […]

For `CC(C)c1c(C(=O)Nc2ccccc2)c(-c2ccccc2)c(-c2ccc(F)cc2)n1CC[C@@H](O)C[C@@H](O)CC(=O)O` [Atorvastatin, reference compound], the “serum low-density cholesterol (LDL-C)” value is on record as “reduced”.
